Binding data for 1 molecule are collected here from PMC7846557.

Sequences of proteins named here, by UniProt entry; tags and fusion partners are left off.
UniProt Q91WB2: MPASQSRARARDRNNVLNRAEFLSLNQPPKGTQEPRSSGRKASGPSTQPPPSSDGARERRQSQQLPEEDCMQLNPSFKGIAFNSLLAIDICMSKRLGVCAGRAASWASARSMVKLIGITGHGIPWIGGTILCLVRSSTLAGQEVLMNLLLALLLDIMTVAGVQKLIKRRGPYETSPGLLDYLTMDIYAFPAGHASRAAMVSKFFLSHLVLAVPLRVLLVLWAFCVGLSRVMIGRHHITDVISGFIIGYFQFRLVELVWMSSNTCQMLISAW

This experiment deals with Net39-miniTurbo (nuclear envelope transmembrane protein 39 with the biotin ligase miniTurbo at the C-terminus) (mouse) (UniProt Q91WB2). Description: proximity labelling; BioID: Net39-miniTurbo in C2C12 myotubes, 500 µM biotin for 4 h against no biotin; lysis in 6 M urea, 10% SDS; streptavidin magnetic beads; biotinylated proteins detected by western blot.

These are yes or no findings as the source states them, for the method shown. Binding seen in cells or lysates may run through a third protein. Here binding means that the protein was enriched with, or labelled near, the bait; the list need not be complete.

B1: SUN2 (protein, UniProt Q8BJS4 1-731)
chain: MSRRSQRLTRYSQDDNDGGSSSSGASSVAGSQGTVFKDSPLRTLKRKSSNMKHLSPAPQLGPSSDSHTSYYSESVVRESYIGSPRAVSLARSALLDDHLHSEPYWSGDLRGRRRRGTGGSESSKANGLTAESKASEDFFGSSSGYSSEDDLAGYTDSDQHSSGSRLRSAASRAGSFVWTLVTFPGRLFGLLYWWIGTTWYRLTTAASLLDVFVLTRSRHFSLNLKSFLWFLLLLLLLTGLTYGAWHFYPLGLQTLQPAVVSWWAAKESRKQPEVWESRDASQHFQAEQRVLSRVHSLERRLEALAADFSSNWQKEAIRLERLELRQGAAGHGGGSSLSHEDALSLLEGLVSRREATLKEDLRRDTVAHIQEELATLRAEHHQDSEDLFKKIVQASQESEARVQQLKTEWKSMTQEAFQESSVKELGRLEAQLASLRQELAALTLKQNSVADEVGLLPQKIQAARADVESQFPDWIRQFLLGDRGARSGLLQRDEMHAQLQELENKILTKMAEMQGKSAREAAASLGQILQKEGIVGVTEEQVHRIVKQALQRYSEDRIGMVDYALESGGASVISTRCSETYETKTALLSLFGIPLWYHSQSPRVILQPDVHPGNCWAFQGPQGFAVVRLSARIRPTAVTLEHVPKALSPNSTISSAPKDFAIFGFDEDLQQEGTLLGTFAYDQDGEPIQTFYFQASKMATYQVVELRILTNWGHPEYTCIYRFRVHGEPAH
Regarding B1, the binding entry is on record as “binds”.
